Source: patent US8912144B2, “Method for treating stroke via administration of NEP1-40 and inosine” (Children's Medical Center Corporation, priority 2003, dated 2014)
The source gives many values for each of these; only a part stands here.

System: corticospinal neurons (CSNs/CSMNs)
Assay: Laser-capture microdissection and Illumina microarray gene expression in corticospinal neurons contralateral to stroke
Format: in vivo, rat
Description: In a separate group of animals (n=20), layer V pyramidal cells of the sensorimotor cortex were retrogradely labeled by injecting Alexa-Fluor-488-conjugated cholera toxin B subunit (CTB; 300 U/μl in sterile saline) into the cervical spinal cord. For this, animals were anesthetized with a combination of ketamine and Domitor (medetomidine) and a laminectomy was performed at the cervical level of the spinal cord (C2-C4). CTB was stereotaxically delivered into four sites lateral to the corticospinal tract. Injections (1.3 μl) were spaced 1 mm apart on the rostro-caudal axis, and were made 0.5 mm to the left and right of the midline. After allowing two weeks for transport of the tracer, we performed either sham surgery with no treatment (n=6) or stroke surgery combined with saline (n=3) or inosine (n=4) treatment as described above. Seven days later, animals were decapitated under transient gas anesthesia, brains were removed and rinsed in cold RPMI medium, and a tissue block containing the sensorimotor cortex was dissected and placed in OCT Tissue Tek Medium (Sakura Finetek USA Inc., CA) on dry ice within five minutes of death. Ten μm sections were cut onto precleaned Gold Seal RITE-ON glass slides (Gold Seal Prod-ucts, Portsmouth, N.H.), placed on dry ice, and rapidly stored at −80° C.
Slide-mounted sections were thawed and dehydrated in RNAse-free ethanol gradients and xylene. Retro-gradely labeled, fluorescent cortical pyramidal cells in the undamaged hemisphere were individually captured using the Arcturus VERITAS system. ≧500 cells were collected from each animal and stored in Arcturus extraction buffer at −80° C. Total RNA was extracted from cells using the Micro-to-Midi TotalRNA Purification System (Invitrogen, Carlsbad Calif.) and double-amplified using the TargetAmp 2-Round Aminoallyl-aRNA Amplification kit 1.0 (Epicentre, Madison, Wis.). Amplified RNA was checked for average fragment length using the Agilent RNA 6000 Nano LabChip kit (Agilent Technologies, Santa Clara, Calif.) and then biotinylated and hybridized (1 μg) on Illumina RatRef-12 Expression BeadChip arrays (Illumina, San Diego Calif.), querying the expression of >22,000 RefSeq-curated rat transcripts. Results were obtained from a total of 15 samples representing 6 untreated controls, 4 animals with stroke treated with saline and 5 animals with stroke treated with inosine. Slides were processed and scanned with Illumina BeadStation platform according to the manufacturer protocol.
Raw data was analyzed using Bioconductor packages (www.bioconductor.org, (Gentleman et al., 2004)). Low level quality-control analysis was performed using inter-array Pearson correlation and clustering based on variance. Two arrays (1 saline and 1 inosine-treated) were outliers and were excluded from the analysis. Data was normalized using quantile normalization, and analysis of differential expression was performed using a linear model fitting (LIMMA package, (Smyth, 2005). Differentially expressed genes were classified according to gene ontology using Bioconductor packages and online tools (DAVID, http://david.abcc.ncifcrf.gov/). Pathway analysis was carried out using Ingenuity Pathway Analysis (Ingenuity Systems, www.ingenuity.com).

[1] = 39332 ILMN_56430, septin 7 (Sept7)

OC[C@H]1O[C@@H](n2cnc3c(O)ncnc32)[C@H](O)[C@@H]1O [inosine]
Fold-Induction Stroke, ino vs. cntrl [1]: 0.35
Signal Intensity Inosine [1]: 226
Fold-Induction Stroke, ino vs. cntrl (1200013a08rik ILMN_48533): 1.87
Signal Intensity Inosine (1200013a08rik ILMN_48533): 641
Fold-Induction Stroke, ino vs. cntrl (Ak3 ILMN_61494): 0.53
Signal Intensity Inosine (Ak3 ILMN_61494): 452
Fold-Induction Stroke, ino vs. cntrl (Arhgef9 ILMN_63975): 0.37
Signal Intensity Inosine (Arhgef9 ILMN_63975): 994
Fold-Induction Stroke, ino vs. cntrl (Bf ILMN_69719): 2.37
Signal Intensity Inosine (Bf ILMN_69719): 1589
Fold-Induction Stroke, ino vs. cntrl (Bnip3 ILMN_56273): 0.20
Signal Intensity Inosine (Bnip3 ILMN_56273): 326
Fold-Induction Stroke, ino vs. cntrl (Bzrp ILMN_55731): 2.23
Signal Intensity Inosine (Bzrp ILMN_55731): 865
Fold-Induction Stroke, ino vs. cntrl (C1qa ILMN_58496): 1.70
Signal Intensity Inosine (C1qa ILMN_58496): 1561
Fold-Induction Stroke, ino vs. cntrl (C1s ILMN_55706): 2.19
Signal Intensity Inosine (C1s ILMN_55706): 668
Fold-Induction Stroke, ino vs. cntrl (Cacna2d1 ILMN_48911): 0.27
Signal Intensity Inosine (Cacna2d1 ILMN_48911): 1708
Fold-Induction Stroke, ino vs. cntrl (Ccpg1 ILMN_52890): 0.41
Signal Intensity Inosine (Ccpg1 ILMN_52890): 228
Fold-Induction Stroke, ino vs. cntrl (Cd47 ILMN_64241): 0.26
Signal Intensity Inosine (Cd47 ILMN_64241): 831
Fold-Induction Stroke, ino vs. cntrl (Cd63 ILMN_67382): 2.32
Signal Intensity Inosine (Cd63 ILMN_67382): 1687
Fold-Induction Stroke, ino vs. cntrl (Chc1l ILMN_62729): 1.94
Signal Intensity Inosine (Chc1l ILMN_62729): 696
Fold-Induction Stroke, ino vs. cntrl (Col1a2 ILMN_52596): 2.32
Signal Intensity Inosine (Col1a2 ILMN_52596): 2071
Fold-Induction Stroke, ino vs. cntrl (Col6a3 ILMN_66976): 2.15
Signal Intensity Inosine (Col6a3 ILMN_66976): 1052
Fold-Induction Stroke, ino vs. cntrl (Dnase2 ILMN_59943): 2.08
Signal Intensity Inosine (Dnase2 ILMN_59943): 778
Fold-Induction Stroke, ino vs. cntrl (Dscam ILMN_54925): 0.64
Signal Intensity Inosine (Dscam ILMN_54925): 227
Fold-Induction Stroke, ino vs. cntrl (Emp3 ILMN_59412): 2.12
Signal Intensity Inosine (Emp3 ILMN_59412): 733
Fold-Induction Stroke, ino vs. cntrl (Fcgr3a ILMN_55414): 2.55
Signal Intensity Inosine (Fcgr3a ILMN_55414): 596
Fold-Induction Stroke, ino vs. cntrl (Fcgrt ILMN_69907): 1.88
Signal Intensity Inosine (Fcgrt ILMN_69907): 1201
Fold-Induction Stroke, ino vs. cntrl (Gars ILMN_61248): 0.41
Signal Intensity Inosine (Gars ILMN_61248): 1274
Fold-Induction Stroke, ino vs. cntrl (Gda ILMN_65816): 0.44
Signal Intensity Inosine (Gda ILMN_65816): 1087
Fold-Induction Stroke, ino vs. cntrl (Glg1 ILMN_68750): 0.50
Signal Intensity Inosine (Glg1 ILMN_68750): 226
Fold-Induction Stroke, ino vs. cntrl (Gp38 ILMN_58188): 1.74
Signal Intensity Inosine (Gp38 ILMN_58188): 5501
Fold-Induction Stroke, ino vs. cntrl (Icam1 ILMN_61139): 2.46
Signal Intensity Inosine (Icam1 ILMN_61139): 761
Fold-Induction Stroke, ino vs. cntrl (Irf1 ILMN_53085): 1.76
Signal Intensity Inosine (Irf1 ILMN_53085): 1048
Fold-Induction Stroke, ino vs. cntrl (Irf5 ILMN_66407): 2.25
Signal Intensity Inosine (Irf5 ILMN_66407): 662
Fold-Induction Stroke, ino vs. cntrl (Jak3 ILMN_63407): 2.17
Signal Intensity Inosine (Jak3 ILMN_63407): 1204
Fold-Induction Stroke, ino vs. cntrl (LOC287596 ILMN_65519): 0.49
Signal Intensity Inosine (LOC287596 ILMN_65519): 330
Fold-Induction Stroke, ino vs. cntrl (LOC290851 ILMN_52399): 1.60
Signal Intensity Inosine (LOC290851 ILMN_52399): 1691
Fold-Induction Stroke, ino vs. cntrl (LOC293566 ILMN_66756): 2.35
Signal Intensity Inosine (LOC293566 ILMN_66756): 541
Fold-Induction Stroke, ino vs. cntrl (LOC302671 ILMN_50309): 0.61
Signal Intensity Inosine (LOC302671 ILMN_50309): 919
Fold-Induction Stroke, ino vs. cntrl (LOC303731 ILMN_62940): 1.98
Signal Intensity Inosine (LOC303731 ILMN_62940): 619
Fold-Induction Stroke, ino vs. cntrl (LOC309014 ILMN_60231): 0.58
Signal Intensity Inosine (LOC309014 ILMN_60231): 232
Fold-Induction Stroke, ino vs. cntrl (LOC311236 ILMN_59008): 0.47
Signal Intensity Inosine (LOC311236 ILMN_59008): 1008
Fold-Induction Stroke, ino vs. cntrl (LOC315776 ILMN_50631): 1.48
Signal Intensity Inosine (LOC315776 ILMN_50631): 718
Fold-Induction Stroke, ino vs. cntrl (LOC361594 ILMN_52177): 1.90
Signal Intensity Inosine (LOC361594 ILMN_52177): 880
Fold-Induction Stroke, ino vs. cntrl (LOC497712 ILMN_50828): 0.43
Signal Intensity Inosine (LOC497712 ILMN_50828): 314
Fold-Induction Stroke, ino vs. cntrl (LOC498726 ILMN_51854): 0.46
